Results are given in words; binding and its absence hold for the method and conditions named. Some entries that bind do so weakly or less than the wild type.
Molecular target: receptors TIE2 of ANG2 on HUVEC cells (human) (UniProt Q02763)
Experiment: flow cytometry, His-tagged human ANG2 (10 ug/mL) on HUVEC cells, PE anti-His

By UniProt entry, the sequences of proteins in these tests, tags left out. Residues count along the entry.
UniProt Q02763, residues 23-1124: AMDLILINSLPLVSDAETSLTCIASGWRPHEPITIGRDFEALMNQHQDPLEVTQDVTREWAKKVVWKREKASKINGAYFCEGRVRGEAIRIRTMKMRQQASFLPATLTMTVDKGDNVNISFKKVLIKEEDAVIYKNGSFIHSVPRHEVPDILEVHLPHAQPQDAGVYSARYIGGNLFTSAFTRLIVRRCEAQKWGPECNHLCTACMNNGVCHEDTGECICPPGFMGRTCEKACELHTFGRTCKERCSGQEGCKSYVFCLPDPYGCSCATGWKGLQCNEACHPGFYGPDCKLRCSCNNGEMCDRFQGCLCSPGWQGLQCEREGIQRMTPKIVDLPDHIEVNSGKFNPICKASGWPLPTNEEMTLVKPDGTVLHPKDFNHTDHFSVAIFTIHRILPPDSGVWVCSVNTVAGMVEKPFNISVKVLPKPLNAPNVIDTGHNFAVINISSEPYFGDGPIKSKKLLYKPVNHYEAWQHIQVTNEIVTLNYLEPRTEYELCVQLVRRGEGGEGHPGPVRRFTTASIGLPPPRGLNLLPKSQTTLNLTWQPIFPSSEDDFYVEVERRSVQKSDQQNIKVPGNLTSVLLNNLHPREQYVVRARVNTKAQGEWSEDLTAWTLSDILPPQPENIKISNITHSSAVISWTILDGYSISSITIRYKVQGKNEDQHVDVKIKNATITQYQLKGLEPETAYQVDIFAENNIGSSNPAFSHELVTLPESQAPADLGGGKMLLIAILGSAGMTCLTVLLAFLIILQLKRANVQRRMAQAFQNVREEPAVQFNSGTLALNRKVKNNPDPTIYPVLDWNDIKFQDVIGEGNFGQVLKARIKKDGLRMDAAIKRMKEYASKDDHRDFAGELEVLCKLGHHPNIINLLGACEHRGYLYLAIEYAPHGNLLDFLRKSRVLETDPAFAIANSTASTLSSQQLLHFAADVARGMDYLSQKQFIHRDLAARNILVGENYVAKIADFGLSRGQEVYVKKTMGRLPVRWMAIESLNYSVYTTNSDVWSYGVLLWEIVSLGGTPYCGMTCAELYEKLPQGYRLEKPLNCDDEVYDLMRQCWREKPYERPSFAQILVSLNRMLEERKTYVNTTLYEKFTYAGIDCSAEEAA
UniProt O15123, residues 19-496: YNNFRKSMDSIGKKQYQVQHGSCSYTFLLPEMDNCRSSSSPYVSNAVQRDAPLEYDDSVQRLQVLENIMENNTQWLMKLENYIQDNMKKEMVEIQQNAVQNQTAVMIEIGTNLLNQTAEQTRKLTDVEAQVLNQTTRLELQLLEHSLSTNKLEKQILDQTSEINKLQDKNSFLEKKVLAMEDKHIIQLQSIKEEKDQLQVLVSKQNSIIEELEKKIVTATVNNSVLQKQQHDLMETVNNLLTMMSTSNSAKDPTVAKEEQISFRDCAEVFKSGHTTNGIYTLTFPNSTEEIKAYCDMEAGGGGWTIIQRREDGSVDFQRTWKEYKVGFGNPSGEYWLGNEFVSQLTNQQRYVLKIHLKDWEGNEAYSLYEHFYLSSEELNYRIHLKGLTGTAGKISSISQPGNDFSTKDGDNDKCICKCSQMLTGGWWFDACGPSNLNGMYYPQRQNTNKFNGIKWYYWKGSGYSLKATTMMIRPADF

“human ANG2 protein (623-AN-025/CF, R&D) (from UniProt O15123 19-496) (ligand)” was tested. Which binding did it give?
Its binding is “binds”.

From patent US20240425575A1
